Among the data in PubChem BioAssay AID493014 (National Center for Advancing Translational Sciences (NCATS), 2011) are AC50 values, retold here.

The assay can be described thus: qHTS Assay to Find Inhibitors of Chronic Active B-Cell Receptor Signaling. The settings on record: ABC-DLBCL IkBa-CBG/CBR reporter, luminescence ratio (green luciferase fused to IkBa over red control in TMD8 lymphoma cells), 4 h. The procedure, abridged:
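Cell line TMD8 (human ABC DLBCL), stably expressing tet-inducible CBG68-IkBa fusion and CBR; IMDM/0.5% FBS; cpd up to 46 uM; dox induction, 4 h, 37C/5% CO2; dual luminescence; green/red ratio; MG132 control.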
(In qHTS, concentration-response curves come from the screen itself.)

[1] abbreviates: measured here: CBR red luminescence, cell number.
Setting [2] is: measured here: IkBa-CBG green luminescence.

The list shows a part of the results. These are further read-outs of the screen, such as a control signal, another cell line or another target. No call is given for them. Most of these compounds were active or inconclusive in the main read-out, so they are no random draw. Potencies come from curve fits of mixed quality, noted in brackets.

Usually AC50 stands for the concentration at which the activity in the assay is half-maximal.

For the molecule `C=CCNC(=O)/C(C#N)=C/c1ccccc1OCc1ccc(C(=O)OC)cc1`, the AC50 by setting is: under setting [1], 14.6 µM [falling, partial curve]; under setting [2], 32.6 µM [falling, partial curve, poor fit]. For `CCCn1nnnc1SCC(=O)N1CCOCC1`, under setting [1], the AC50 is 0.631 µM [rising, partial curve, poor fit]. Still for that read-out and setting: to `Cc1ccc([N+](=O)[O-])cc1NC(=O)c1ccc(-c2ccccc2)cc1` belongs 4.11 µM [rising, single point]; to `Cc1ccc(-c2cc(-c3ccccc3)nc(NN)n2)cc1`, 17.8 µM [falling, single point]. For the molecule `COc1cc(-c2noc(C)c2C#CC2(N)CCCCC2)cc(OC)c1OC`, the AC50 is 12.6 µM [falling, single point] under setting [1] and 22.4 µM [rising, partial curve, poor fit] under setting [2]. For the molecule `COc1ccc(C2=C(C#N)C(=O)OC2)cc1`, under setting [1], the AC50 was 1.12 µM [rising, full curve, poor fit].

For the molecule `CC1CN(CCCCSc2ccccc2)CC(C)O1` (stereo not drawn), the AC50 under setting [1] was 10 µM [rising, partial curve, poor fit].

Regarding `COC(=O)c1ccc2c(c1)N(C)C(=O)CS2`, the concentration at half-maximal activity (AC50) under setting [1] was 5.8 µM [rising, single point]. For the molecule `S=c1[nH]nc(/C=C/c2ccccc2)o1`, the AC50 under setting [1] was 35.5 µM [falling, single point].

Turning to `O=C(NNc1nc(-c2ccccc2)cs1)c1cccs1`, under setting [1], the AC50 was 14.1 µM [falling, single point]. As for `CC(=O)Nc1ccc(S(=O)(=O)NCCC(=O)OCc2nnc(-c3ccccc3)o2)cc1`, the AC50 under setting [1] is 14.6 µM [rising, partial curve]. Same read-out and setting: to `CCCCc1cc(=O)oc2cc(C)cc(OCC(=O)NCc3ccccn3)c12` belongs 35.5 µM [falling, single point]; to `CSCCC(NC(=O)c1ccco1)C(=O)Nc1cc(C)ccn1` (stereo not drawn), 25.9 µM [rising, single point]. As for `COc1cccc(C(=O)NCC(c2cccs2)N2CCOCC2)c1` (stereo not drawn), under setting [1], the concentration at half-maximal activity (AC50) is 25.9 µM [falling, single point]. On the same count and under the same terms, under `CC1CCCN(c2sc(S(C)(=O)=O)nc2S(=O)(=O)c2ccc(Cl)cc2)C1` (stereo not drawn) stands 11.2 µM [falling, partial curve]; under `Clc1c(CSc2nc3ccccc3o2)nc2ccccn12`, 0.651 µM [rising, full curve, poor fit]. The same measure, in the same setting: under `CCCc1nn(C)c2c(=O)[nH]c(-c3cc(S(=O)(=O)N4CCN(C)CC4)ccc3OCC)nc12` stands 0.708 µM [falling, full curve, poor fit]. Same read-out and setting: to `CC(C)c1ccc(/C=C2\SC(=S)N(CCC(=O)N3CCCCC3CCO)C2=O)cc1` (stereo not drawn) belongs 1.12 µM [falling, full curve].

As to `COc1ccc(CCC(C)N2CCc3ccccc3C2)cc1` (stereo not drawn), under setting [1], the AC50 was 20 µM [rising, partial curve, poor fit]. On the same count and under the same terms, to `Cc1cccn2c(=O)c3cc(C(=O)NC4CCCCCC4)sc3nc12` belongs 6.31 µM [rising, single point]; to `CC(=O)Nc1ccc(C(=O)CN2C(=O)NC3(CCOc4ccccc43)C2=O)c(F)c1` (stereo not drawn), 1.46 µM [rising, full curve, poor fit]; to `CCC(=O)Nc1ccc(C(=O)OCc2ccccc2)cc1`, 35.5 µM [rising, single point]. For `COc1cccc(C(=O)Nc2ccc(N3CCN(C(=O)c4ccco4)CC3)cc2)c1`, the AC50 under setting [1] was 35.5 µM [falling, single point]. With `O=C(c1ccc2c(=O)n(Cc3ccc(Cl)cc3)c(=S)[nH]c2c1)N1CCOCC1`, the AC50 under setting [1] is 17.8 µM [falling, single point]. On the same count and under the same terms, to `CC(=NNC(=O)c1ccc(NS(=O)(=O)c2cccs2)cc1)c1ccc(OCC(N)=O)cc1` belongs 18.4 µM [falling, single point]. Consider `CCOc1ccc(NC(=S)N2CCCN(Cc3cccc(Cl)c3)C2)cc1`, for which, under setting [1], the AC50 was 35.5 µM [falling, single point]. For the molecule `CCOc1ncccc1C(=O)NCCc1c[nH]c2ccccc12`, under setting [1], the AC50 was 0.708 µM [falling, full curve, poor fit].

With `COc1cc(O)c(C(=O)/C=C/c2ccccc2)c(OC)c1`, the AC50 under setting [1] was 12.6 µM [falling, single point] and the AC50 under setting [2] is 12.6 µM [rising, partial curve, poor fit]. Consider `Cc1csc(=NC(=O)c2ccccc2)n1C`, for which the AC50 under setting [1] was 6.51 µM [rising, single point]. Still for that read-out and setting: to `Cc1ccc2c(N)c(C#N)sc2n1` belongs 5.17 µM [falling, partial curve]; to `N/C(Cc1cccc2ccccc12)=N\OC(=O)COc1ccccc1`, 2.31 µM [rising, partial curve, poor fit]; to `CC1(C)C(=O)OC(c2cccn2-c2cccc([N+](=O)[O-])c2)C2(CCCCC2)C1=O` (stereo not drawn), 29.1 µM [falling, single point]. For `COc1ccc(OC)c(-c2cc(C3CCN(c4cc(Cl)nc(N)n4)CC3)[nH]n2)c1`, under setting [1], the AC50 is 3.55 µM [falling, partial curve, poor fit]. As to `Cc1ccc(S(=O)(=O)N2CC=C(C(=O)NCCC(C)C)CC2)cc1`, under setting [1], the AC50 is 11.2 µM [rising, partial curve, poor fit].

Regarding `O=C(NN=C1CCCCCC1)c1ccc(Cl)s1`, the AC50 under setting [1] is 5.62 µM [falling, full curve].

As to `Cc1cc(Nc2ccc([N+](=O)[O-])cc2)nc2ccccc12`, under setting [1], the AC50 is 3.16 µM [rising, full curve].

Consider `Cc1cc(C)nc(SCc2nc(N)nc(-c3ccccc3O)n2)n1`, for which the AC50 under setting [1] was 32.6 µM [falling, single point].

For `Cc1cccn2c(=O)c(/C=C3\SC(=S)NC3=O)c(NCCCN3CCOCC3)nc12`, the AC50 under setting [1] was 6.31 µM [rising, full curve, poor fit]. On the same count and under the same terms, under `Cc1cc(C)nc(S/C=C/C(=O)c2ccccc2)n1` stands 35.5 µM [falling, single point]; under `CCOC(=O)c1c(CSC(=N)N)n(-c2ccc(C)cc2)c2cc(Br)c(OC(C)=O)cc12`, 20 µM [rising, single point]; under `CN1CCc2nc(SCC(=O)Nc3ccc(OC(F)(F)F)cc3)c(C#N)c(-c3cccs3)c2C1`, 2.59 µM [falling, full curve, poor fit].

Consider `C=CCC(NC(C)c1ccccc1)c1ccco1` (stereo not drawn), for which the half-maximal activity concentration (AC50) under setting [1] was 20 µM [falling, single point].

Regarding `CC(=O)c1sc(NC(=O)C2CSC3(C)CCC(=O)N23)nc1-c1ccccc1` (stereo not drawn), the AC50 under setting [1] is 0.82 µM [falling, partial curve, poor fit] and the AC50 under setting [2] is 9.2 µM [rising, partial curve, poor fit]. As for `O=C(Nc1ccc2ccccc2c1)/C(=C\c1ccc2c(c1)OCO2)NC(=O)c1ccco1`, the AC50 under setting [1] was 18.4 µM [rising, partial curve, poor fit]. For the molecule `CCc1c(C#N)c(N)nc(SCC(=O)OCc2ccccc2)c1C#N`, under setting [1], the AC50 was 3.55 µM [rising, full curve, poor fit]. Still for that read-out and setting: under `Cc1cc(C)cc(NC(=O)CSc2ccc(-c3ccccn3)nn2)c1` stands 35.5 µM [rising, single point]; under `Cc1cccc(NC(=O)c2cc([N+](=O)[O-])ccc2NC2CCCCC2)c1`, 29.1 µM [rising, single point]; under `Cc1ccc(C(=O)/C=C/c2c(C)nn(-c3ccccc3)c2Cl)cc1`, 0.00411 µM [rising, full curve, poor fit].

As for `C/C(=N\NC(=O)c1ccc(N/N=C(\C)c2ccncc2)cc1)c1ccncc1`, the AC50 under setting [1] was 15.8 µM [falling, partial curve, poor fit]. In the case of `C=CCn1c(O)c(C=Nc2ccccc2)sc1=S`, the AC50 under setting [1] is 8.91 µM [falling, single point]. The same measure, in the same setting: to `CC(C)(C)C(=O)Nc1nc2c(c(=O)[nH]1)CCCC2` belongs 15.8 µM [falling, partial curve, poor fit]; to `Cc1cc(NS(=O)(=O)c2ccc(NC(=O)COc3c(C)cc(Br)cc3C)cc2)no1`, 2.24 µM [falling, partial curve, poor fit]; to `CCN(CC)CCn1c2ccccc2c2nc3ccccc3nc21`, 17.8 µM [falling, single point].

With `O=[N+]([O-])c1cccc(-c2cn3ccccc3n2)c1`, the AC50 under setting [1] was 12.6 µM [rising, partial curve]. On the same count and under the same terms, to `COc1cc2c(cc1OC)CN(C(=O)CN1C(=O)c3ccc([N+](=O)[O-])cc3C1=O)CC2` belongs 29.1 µM [rising, single point]; to `CC(C)(C)c1ccc(-c2noc(CCC(=O)NCc3ccco3)n2)cc1`, 11.2 µM [falling, partial curve]; to `CCC(C)[C@@H](N)C(=O)N/N=C/c1ccc2ncccc2c1` (stereo partly drawn), 0.92 µM [rising, full curve, poor fit].

`O=[N+]([O-])c1ccc(O)c2ncccc12`: the AC50 runs as follows: under setting [1], 2.82 µM [falling, single point]; under setting [2], 3.26 µM [falling, partial curve]. `CC(C)NC(=O)c1onc(CSc2ccc(F)c(F)c2)c1C(=O)O`: under setting [1], the AC50 was 15.8 µM [falling, single point].

Turning to `COc1ccc(OC)c(CCNC(=O)Cn2sc3nc(C)cc(C)c3c2=O)c1`, under setting [1], the AC50 was 29.1 µM [falling, single point]. With `Cc1nn2c(=O)c3c4c(sc3nc2n1-c1ccccc1)COC(C)(C)C4`, under setting [1], the AC50 is 0.316 µM [rising, full curve]. On the same count and under the same terms, under `COc1ccccc1NC(=O)c1cc(C(=O)O)ccc1C(=O)O` stands 35.5 µM [falling, partial curve, poor fit]; under `COc1ccc(Nc2cc(NCCCO)c([N+](=O)[O-])c3nonc23)cc1`, 0.501 µM [rising, full curve, poor fit].
